From PMC2602725
These are yes or no findings as the source states them, for the method shown. Binding seen in cells or lysates may run through a third protein. Some entries that bind do so weakly or less than the wild type. Tags and fused reporters may be left off the sequences shown.

By UniProt entry, the sequences of proteins in these tests, tags left out.
UniProt Q03347: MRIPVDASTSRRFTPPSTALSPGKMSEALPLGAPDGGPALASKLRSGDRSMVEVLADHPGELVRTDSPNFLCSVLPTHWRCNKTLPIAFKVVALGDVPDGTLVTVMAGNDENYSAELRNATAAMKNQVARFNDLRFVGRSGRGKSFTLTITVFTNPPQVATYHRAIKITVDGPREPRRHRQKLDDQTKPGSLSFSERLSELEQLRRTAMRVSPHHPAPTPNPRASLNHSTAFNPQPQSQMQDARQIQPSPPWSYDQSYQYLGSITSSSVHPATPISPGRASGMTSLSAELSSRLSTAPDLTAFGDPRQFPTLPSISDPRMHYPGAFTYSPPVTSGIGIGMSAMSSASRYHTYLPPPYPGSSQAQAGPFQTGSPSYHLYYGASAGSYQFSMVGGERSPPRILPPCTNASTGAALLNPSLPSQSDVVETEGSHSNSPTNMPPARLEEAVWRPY

Molecular target: Myc-tagged Runx1 (UniProt Q03347)
Assay: co-IP; COS7 cells transfected for 48 h; lysed in NTN buffer containing 0.5% NP-40 and 0.5% Triton X-100; lysate incubated with anti-myc antibody overnight at 4 °C, Protein G-Sepharose 2 h, four washes; immunoblot with anti-FLAG

binding: binds
B1: FLAG-tagged Twist-2 (protein, UniProt Q9D030 1-160)
chain: MEEGSSSPVSPVDSLGTSEEELERQPKRFGRKRRYSKKSSEDGSPTPGKRGKKGSPSAQSFEELQSQRILANVRERQRTQSLNEAFAALRKIIPTLPSDKLSKIQTLKLAARYIDFLYQVLQSDEMDNKMTSCSYVAHERLSYAYSVWRMEGAWSMSASH
